Source: article PMC9897797
Results are given in words; binding and its absence hold for the method and conditions named. In cells and extracts the contact can be indirect. These calls come from enrichment with a bait or labelling near it, and not all partners need be listed.

Chains of the proteins cited; added tags and fusions are not shown. Residues count along the entry.
UniProt Q9NRX3: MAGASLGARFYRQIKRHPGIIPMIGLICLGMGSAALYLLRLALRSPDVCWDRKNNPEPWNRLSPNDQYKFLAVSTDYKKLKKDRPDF
UniProt P36543: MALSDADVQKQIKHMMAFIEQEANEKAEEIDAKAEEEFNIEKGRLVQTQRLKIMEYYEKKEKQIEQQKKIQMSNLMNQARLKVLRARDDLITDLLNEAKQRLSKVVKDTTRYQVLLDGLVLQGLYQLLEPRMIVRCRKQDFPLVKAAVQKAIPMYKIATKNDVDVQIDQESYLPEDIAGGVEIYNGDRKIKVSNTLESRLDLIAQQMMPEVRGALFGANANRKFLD
UniProt Q9UBQ5: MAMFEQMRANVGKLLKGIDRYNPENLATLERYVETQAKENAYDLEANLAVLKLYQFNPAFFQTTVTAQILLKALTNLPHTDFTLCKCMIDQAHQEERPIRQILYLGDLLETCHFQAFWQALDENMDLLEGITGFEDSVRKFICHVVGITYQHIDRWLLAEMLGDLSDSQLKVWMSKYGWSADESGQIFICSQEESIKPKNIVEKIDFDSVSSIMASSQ
UniProt P11413: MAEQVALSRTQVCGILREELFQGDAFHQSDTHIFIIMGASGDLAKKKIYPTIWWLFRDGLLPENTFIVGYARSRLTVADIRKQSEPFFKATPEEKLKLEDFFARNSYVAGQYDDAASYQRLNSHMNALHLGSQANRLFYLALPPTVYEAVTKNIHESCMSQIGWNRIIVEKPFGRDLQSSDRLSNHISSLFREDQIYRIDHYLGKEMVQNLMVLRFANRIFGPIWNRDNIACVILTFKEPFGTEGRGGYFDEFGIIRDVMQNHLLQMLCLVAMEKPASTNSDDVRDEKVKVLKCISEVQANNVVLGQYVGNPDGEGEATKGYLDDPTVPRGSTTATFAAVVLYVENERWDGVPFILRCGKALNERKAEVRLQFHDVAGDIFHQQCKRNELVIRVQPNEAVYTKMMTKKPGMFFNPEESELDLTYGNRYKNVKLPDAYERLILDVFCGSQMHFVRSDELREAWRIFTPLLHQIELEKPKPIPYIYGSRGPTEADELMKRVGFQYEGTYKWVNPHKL
UniProt P0DMV8: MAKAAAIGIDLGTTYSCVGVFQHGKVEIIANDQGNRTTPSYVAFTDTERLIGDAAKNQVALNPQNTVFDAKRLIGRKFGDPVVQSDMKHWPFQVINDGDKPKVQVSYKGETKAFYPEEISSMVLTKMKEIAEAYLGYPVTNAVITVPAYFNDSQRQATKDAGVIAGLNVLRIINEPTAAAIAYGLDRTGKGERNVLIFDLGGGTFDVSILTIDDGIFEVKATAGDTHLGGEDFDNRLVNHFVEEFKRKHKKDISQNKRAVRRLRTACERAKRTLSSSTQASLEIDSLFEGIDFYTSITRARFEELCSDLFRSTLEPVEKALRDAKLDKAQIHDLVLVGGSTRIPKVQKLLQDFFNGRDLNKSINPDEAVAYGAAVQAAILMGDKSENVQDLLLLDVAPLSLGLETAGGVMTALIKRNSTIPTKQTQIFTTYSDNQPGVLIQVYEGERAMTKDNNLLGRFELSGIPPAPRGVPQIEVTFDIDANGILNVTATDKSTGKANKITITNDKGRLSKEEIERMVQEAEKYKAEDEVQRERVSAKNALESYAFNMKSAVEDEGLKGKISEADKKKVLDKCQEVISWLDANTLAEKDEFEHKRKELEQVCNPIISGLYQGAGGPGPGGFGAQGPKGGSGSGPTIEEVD
UniProt P28838: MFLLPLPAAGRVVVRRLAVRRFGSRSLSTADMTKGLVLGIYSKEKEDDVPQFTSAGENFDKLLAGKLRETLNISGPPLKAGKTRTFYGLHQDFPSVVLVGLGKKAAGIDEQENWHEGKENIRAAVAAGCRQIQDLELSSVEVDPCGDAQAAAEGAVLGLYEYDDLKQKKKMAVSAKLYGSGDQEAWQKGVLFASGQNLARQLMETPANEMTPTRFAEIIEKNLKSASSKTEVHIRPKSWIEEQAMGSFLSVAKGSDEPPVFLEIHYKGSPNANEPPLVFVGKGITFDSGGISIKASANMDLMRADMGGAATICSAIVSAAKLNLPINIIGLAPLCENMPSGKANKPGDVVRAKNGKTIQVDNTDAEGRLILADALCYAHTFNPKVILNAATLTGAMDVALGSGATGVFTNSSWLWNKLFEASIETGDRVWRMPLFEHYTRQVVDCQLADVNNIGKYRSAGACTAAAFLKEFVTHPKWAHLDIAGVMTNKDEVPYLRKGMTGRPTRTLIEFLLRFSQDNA
UniProt Q9NZM1: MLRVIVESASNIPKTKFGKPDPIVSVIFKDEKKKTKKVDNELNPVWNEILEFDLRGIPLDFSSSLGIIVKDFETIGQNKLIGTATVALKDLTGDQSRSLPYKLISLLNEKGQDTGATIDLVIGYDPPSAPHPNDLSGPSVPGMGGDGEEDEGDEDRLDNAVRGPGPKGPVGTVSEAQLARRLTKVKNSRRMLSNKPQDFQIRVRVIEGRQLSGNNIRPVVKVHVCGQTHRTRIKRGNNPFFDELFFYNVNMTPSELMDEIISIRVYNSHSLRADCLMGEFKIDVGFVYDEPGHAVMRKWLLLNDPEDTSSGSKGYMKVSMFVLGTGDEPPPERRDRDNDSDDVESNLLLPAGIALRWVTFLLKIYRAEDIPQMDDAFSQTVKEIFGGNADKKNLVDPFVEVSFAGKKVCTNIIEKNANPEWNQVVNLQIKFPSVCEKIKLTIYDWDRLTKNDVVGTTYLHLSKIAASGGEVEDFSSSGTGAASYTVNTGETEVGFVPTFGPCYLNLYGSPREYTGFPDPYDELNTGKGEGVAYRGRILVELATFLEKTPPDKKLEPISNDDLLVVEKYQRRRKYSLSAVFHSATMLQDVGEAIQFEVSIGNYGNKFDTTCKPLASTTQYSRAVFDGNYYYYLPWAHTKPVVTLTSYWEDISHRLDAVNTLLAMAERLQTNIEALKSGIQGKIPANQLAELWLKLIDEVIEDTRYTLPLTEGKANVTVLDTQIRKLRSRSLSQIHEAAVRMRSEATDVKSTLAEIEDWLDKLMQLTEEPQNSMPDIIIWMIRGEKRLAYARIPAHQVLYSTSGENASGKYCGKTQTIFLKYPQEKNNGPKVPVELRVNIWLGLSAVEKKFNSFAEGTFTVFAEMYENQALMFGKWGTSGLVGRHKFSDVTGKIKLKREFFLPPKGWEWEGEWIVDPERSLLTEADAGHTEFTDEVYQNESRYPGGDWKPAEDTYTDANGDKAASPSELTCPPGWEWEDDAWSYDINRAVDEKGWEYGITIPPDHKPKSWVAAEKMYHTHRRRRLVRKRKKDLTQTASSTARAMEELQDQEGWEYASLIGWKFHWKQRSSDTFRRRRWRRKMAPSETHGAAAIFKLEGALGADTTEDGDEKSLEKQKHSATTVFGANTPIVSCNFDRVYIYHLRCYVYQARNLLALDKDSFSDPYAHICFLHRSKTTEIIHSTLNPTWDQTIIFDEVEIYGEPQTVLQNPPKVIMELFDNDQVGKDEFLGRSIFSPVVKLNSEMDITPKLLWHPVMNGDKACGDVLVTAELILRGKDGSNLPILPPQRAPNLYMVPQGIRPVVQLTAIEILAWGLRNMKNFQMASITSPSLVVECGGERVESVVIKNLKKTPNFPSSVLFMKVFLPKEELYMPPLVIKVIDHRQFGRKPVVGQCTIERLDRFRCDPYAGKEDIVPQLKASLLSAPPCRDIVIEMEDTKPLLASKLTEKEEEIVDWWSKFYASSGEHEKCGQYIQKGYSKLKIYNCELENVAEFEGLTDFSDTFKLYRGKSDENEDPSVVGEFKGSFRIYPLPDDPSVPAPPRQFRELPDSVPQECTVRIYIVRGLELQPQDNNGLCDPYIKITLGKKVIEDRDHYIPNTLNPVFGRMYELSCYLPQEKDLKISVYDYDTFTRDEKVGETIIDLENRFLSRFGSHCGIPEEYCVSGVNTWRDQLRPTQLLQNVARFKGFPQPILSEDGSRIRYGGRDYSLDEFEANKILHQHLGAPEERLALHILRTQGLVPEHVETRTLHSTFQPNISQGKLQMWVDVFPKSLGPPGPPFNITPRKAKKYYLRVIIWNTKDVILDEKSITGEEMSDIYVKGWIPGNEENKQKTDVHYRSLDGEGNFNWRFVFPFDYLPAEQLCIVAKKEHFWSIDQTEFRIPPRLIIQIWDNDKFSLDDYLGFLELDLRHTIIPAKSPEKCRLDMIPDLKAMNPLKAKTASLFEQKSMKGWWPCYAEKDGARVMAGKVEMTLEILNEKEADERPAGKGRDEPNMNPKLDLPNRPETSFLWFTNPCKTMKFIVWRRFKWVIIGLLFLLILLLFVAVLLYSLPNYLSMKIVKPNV
UniProt P55786: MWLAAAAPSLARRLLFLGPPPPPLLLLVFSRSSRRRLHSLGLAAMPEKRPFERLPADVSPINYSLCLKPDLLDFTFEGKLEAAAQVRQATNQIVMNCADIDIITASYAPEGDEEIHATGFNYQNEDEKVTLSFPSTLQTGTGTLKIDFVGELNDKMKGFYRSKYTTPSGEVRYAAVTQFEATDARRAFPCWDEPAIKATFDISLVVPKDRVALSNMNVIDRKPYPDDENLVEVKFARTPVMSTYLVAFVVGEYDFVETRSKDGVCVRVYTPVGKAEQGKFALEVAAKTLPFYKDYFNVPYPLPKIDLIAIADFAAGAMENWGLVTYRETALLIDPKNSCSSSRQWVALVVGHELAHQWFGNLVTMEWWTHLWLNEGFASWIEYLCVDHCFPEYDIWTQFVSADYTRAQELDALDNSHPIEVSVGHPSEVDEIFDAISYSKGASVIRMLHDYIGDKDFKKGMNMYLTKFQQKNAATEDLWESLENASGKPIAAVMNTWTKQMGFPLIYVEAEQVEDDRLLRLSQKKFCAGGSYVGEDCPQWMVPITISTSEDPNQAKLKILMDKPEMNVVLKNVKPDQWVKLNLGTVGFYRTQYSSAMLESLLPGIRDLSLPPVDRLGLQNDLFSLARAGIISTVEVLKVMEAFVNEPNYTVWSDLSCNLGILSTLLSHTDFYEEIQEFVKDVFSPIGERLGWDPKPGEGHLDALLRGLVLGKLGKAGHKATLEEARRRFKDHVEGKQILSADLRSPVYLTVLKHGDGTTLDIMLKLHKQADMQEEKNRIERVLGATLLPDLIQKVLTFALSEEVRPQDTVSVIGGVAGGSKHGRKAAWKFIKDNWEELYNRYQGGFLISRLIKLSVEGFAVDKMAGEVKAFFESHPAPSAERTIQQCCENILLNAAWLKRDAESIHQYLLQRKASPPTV
UniProt O15118, residues 23-1278: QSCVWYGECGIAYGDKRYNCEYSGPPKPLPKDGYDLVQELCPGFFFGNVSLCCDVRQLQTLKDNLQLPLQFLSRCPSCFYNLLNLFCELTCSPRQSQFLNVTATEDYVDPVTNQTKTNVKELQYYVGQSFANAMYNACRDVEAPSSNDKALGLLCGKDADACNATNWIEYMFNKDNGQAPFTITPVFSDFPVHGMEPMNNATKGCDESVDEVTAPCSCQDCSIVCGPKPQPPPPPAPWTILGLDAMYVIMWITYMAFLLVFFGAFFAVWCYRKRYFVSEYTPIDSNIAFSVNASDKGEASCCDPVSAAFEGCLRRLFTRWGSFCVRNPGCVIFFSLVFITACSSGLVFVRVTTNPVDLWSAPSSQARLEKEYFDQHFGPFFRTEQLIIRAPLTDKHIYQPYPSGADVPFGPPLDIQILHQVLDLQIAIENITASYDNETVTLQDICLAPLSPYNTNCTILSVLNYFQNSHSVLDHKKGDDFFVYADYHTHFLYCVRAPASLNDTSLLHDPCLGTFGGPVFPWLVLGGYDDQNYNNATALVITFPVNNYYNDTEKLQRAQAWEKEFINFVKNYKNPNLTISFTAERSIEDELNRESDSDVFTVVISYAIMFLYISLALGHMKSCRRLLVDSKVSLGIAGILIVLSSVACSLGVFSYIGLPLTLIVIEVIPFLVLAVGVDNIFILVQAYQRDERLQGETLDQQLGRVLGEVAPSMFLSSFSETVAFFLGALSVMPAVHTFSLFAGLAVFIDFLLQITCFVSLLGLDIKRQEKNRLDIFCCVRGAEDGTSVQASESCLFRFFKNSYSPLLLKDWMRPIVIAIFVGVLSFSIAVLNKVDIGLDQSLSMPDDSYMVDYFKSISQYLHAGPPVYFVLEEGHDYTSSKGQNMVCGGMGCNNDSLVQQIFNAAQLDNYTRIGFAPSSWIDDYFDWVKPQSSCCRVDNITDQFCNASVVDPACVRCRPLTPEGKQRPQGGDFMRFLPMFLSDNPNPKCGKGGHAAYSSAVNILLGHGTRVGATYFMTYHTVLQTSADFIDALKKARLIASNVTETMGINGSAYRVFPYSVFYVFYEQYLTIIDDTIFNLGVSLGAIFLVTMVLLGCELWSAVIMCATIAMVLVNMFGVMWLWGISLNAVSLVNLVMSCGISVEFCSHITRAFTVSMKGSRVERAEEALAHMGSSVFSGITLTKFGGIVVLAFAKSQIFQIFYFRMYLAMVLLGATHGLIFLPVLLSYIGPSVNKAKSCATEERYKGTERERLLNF
UniProt P35080: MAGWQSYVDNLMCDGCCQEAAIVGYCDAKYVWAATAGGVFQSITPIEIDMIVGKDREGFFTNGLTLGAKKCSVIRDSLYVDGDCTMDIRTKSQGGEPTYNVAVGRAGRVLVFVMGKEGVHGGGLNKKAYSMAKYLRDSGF

B1: ETFA (protein, UniProt P13804 20-333)
chain: QSTLVIAEHANDSLAPITLNTITAATRLGGEVSCLVAGTKCDKVAQDLCKVAGIAKVLVAQHDVYKGLLPEELTPLILATQKQFNYTHICAGASAFGKNLLPRVAAKLEVAPISDIIAIKSPDTFVRTIYAGNALCTVKCDEKVKVFSVRGTSFDAAATSGGSASSEKASSTSPVEISEWLDQKLTKSDRPELTGAKVVVSGGRGLKSGENFKLLYDLADQLHAAVGASRAAVDAGFVPNDMQVGQTGKIVAPELYIAVGISGAIQHLAGMKDSKTIVAINKDPEAPIFQVADYGIVADLFKVVPEMTEILKKK
B2: PA2G4 (protein, UniProt Q9UQ80 1-394)
chain: MSGEDEQQEQTIAEDLVVTKYKMGGDIANRVLRSLVEASSSGVSVLSLCEKGDAMIMEETGKIFKKEKEMKKGIAFPTSISVNNCVCHFSPLKSDQDYILKEGDLVKIDLGVHVDGFIANVAHTFVVDVAQGTQVTGRKADVIKAAHLCAEAALRLVKPGNQNTQVTEAWNKVAHSFNCTPIEGMLSHQLKQHVIDGEKTIIQNPTDQQKKDHEKAEFEVHEVYAVDVLVSSGEGKAKDAGQRTTIYKRDPSKQYGLKMKTSRAFFSEVERRFDAMPFTLRAFEDEKKARMGVVECAKHELLQPFNVLYEKEGEFVAQFKFTVLLMPNGPMRITSGPFEPDLYKSEMEVQDAELKALLQSSASRKTQKKKKKKASKTAENATSGETLEENEAGD
B3: PSAT1 (protein, UniProt Q9Y617 1-370)
chain: MDAPRQVVNFGPGPAKLPHSVLLEIQKELLDYKGVGISVLEMSHRSSDFAKIINNTENLVRELLAVPDNYKVIFLQGGGCGQFSAVPLNLIGLKAGRCADYVVTGAWSAKAAEEAKKFGTINIVHPKLGSYTKIPDPSTWNLNPDASYVYYCANETVHGVEFDFIPDVKGAVLVCDMSSNFLSKPVDVSKFGVIFAGAQKNVGSAGVTVVIVRDDLLGFALRECPSVLEYKVQAGNSSLYNTPPCFSIYVMGLVLEWIKNNGGAAAMEKLSSIKSQTIYEIIDNSQGFYVCPVEPQNRSKMNIPFRIGNAKGDDALEKRFLDKALELNMLSLKGHRSVGGIRASLYNAVTIEDVQKLAAFMKKFLEMHQL
B4: MARS (protein, UniProt P56192 1-900)
chain: MRLFVSDGVPGCLPVLAAAGRARGRAEVLISTVGPEDCVVPFLTRPKVPVLQLDSGNYLFSTSAICRYFFLLSGWEQDDLTNQWLEWEATELQPALSAALYYLVVQGKKGEDVLGSVRRALTHIDHSLSRQNCPFLAGETESLADIVLWGALYPLLQDPAYLPEELSALHSWFQTLSTQEPCQRAAETVLKQQGVLALRPYLQKQPQPSPAEGRAVTNEPEEEELATLSEEEIAMAVTAWEKGLESLPPLRPQQNPVLPVAGERNVLITSALPYVNNVPHLGNIIGCVLSADVFARYSRLRQWNTLYLCGTDEYGTATETKALEEGLTPQEICDKYHIIHADIYRWFNISFDIFGRTTTPQQTKITQDIFQQLLKRGFVLQDTVEQLRCEHCARFLADRFVEGVCPFCGYEEARGDQCDKCGKLINAVELKKPQCKVCRSCPVVQSSQHLFLDLPKLEKRLEEWLGRTLPGSDWTPNAQFITRSWLRDGLKPRCITRDLKWGTPVPLEGFEDKVFYVWFDATIGYLSITANYTDQWERWWKNPEQVDLYQFMAKDNVPFHSLVFPCSALGAEDNYTLVSHLIATEYLNYEDGKFSKSRGVGVFGDMAQDTGIPADIWRFYLLYIRPEGQDSAFSWTDLLLKNNSELLNNLGNFINRAGMFVSKFFGGYVPEMVLTPDDQRLLAHVTLELQHYHQLLEKVRIRDALRSILTISRHGNQYIQVNEPWKRIKGSEADRQRAGTVTGLAVNIAALLSVMLQPYMPTVSATIQAQLQLPPPACSILLTNFLCTLPAGHQIGTVSPLFQKLENDQIESLRQRFGGGQAKTSPKPAVVETVTTAKPQQIQALMDEVTKQGNIVRELKAQKADKNEVAAEVAKLLDLKKQLAVAEGKPPEAPKGKKKK
B5: EHD2 (protein, UniProt Q9NZN4 1-543)
chain: MFSWLKRGGARGQQPEAIRTVTSALKELYRTKLLPLEEHYRFGAFHSPALEDADFDGKPMVLVAGQYSTGKTSFIQYLLEQEVPGSRVGPEPTTDCFVAVMHGDTEGTVPGNALVVDPDKPFRKLNPFGNTFLNRFMCAQLPNQVLESISIIDTPGILSGAKQRVSRGYDFPAVLRWFAERVDLIILLFDAHKLEISDEFSEAIGALRGHEDKIRVVLNKADMVETQQLMRVYGALMWALGKVVGTPEVLRVYIGSFWSQPLLVPDNRRLFELEEQDLFRDIQGLPRHAALRKLNDLVKRARLVRVHAYIISYLKKEMPSVFGKENKKKQLILKLPVIFAKIQLEHHISPGDFPDCQKMQELLMAHDFTKFHSLKPKLLEALDEMLTHDIAKLMPLLRQEELESTEVGVQGGAFEGTHMGPFVERGPDEAMEDGEEGSDDEAEWVVTKDKSKYDEIFYNLAPADGKLSGSKAKTWMVGTKLPNSVLGRIWKLSDVDRDGMLDDEEFALASHLIEAKLEGHGLPANLPRRLVPPSKRRHKGSAE
B6: RARS (protein, UniProt P54136 1-660)
chain: MDVLVSECSARLLQQEEEIKSLTAEIDRLKNCGCLGASPNLEQLQEENLKLKYRLNILRKSLQAERNKPTKNMINIISRLQEVFGHAIKAAYPDLENPPLLVTPSQQAKFGDYQCNSAMGISQMLKTKEQKVNPREIAENITKHLPDNECIEKVEIAGPGFINVHLRKDFVSEQLTSLLVNGVQLPALGENKKVIVDFSSPNIAKEMHVGHLRSTIIGESISRLFEFAGYDVLRLNHVGDWGTQFGMLIAHLQDKFPDYLTVSPPIGDLQVFYKESKKRFDTEEEFKKRAYQCVVLLQGKNPDITKAWKLICDVSRQELNKIYDALDVSLIERGESFYQDRMNDIVKEFEDRGFVQVDDGRKIVFVPGCSIPLTIVKSDGGYTYDTSDLAAIKQRLFEEKADMIIYVVDNGQSVHFQTIFAAAQMIGWYDPKVTRVFHAGFGVVLGEDKKKFKTRSGETVRLMDLLGEGLKRSMDKLKEKERDKVLTAEELNAAQTSVAYGCIKYADLSHNRLNDYIFSFDKMLDDRGNTAAYLLYAFTRIRSIARLANIDEEMLQKAARETKILLDHEKEWKLGRCILRFPEILQKILDDLFLHTLCDYIYELATAFTEFYDSCYCVEKDRQTGKILKVNMWRMLLCEAVAAVMAKGFDILGIKPVQRM
B7: Niemann-Pick Disease Type C Intracellular Cholesterol Transporter 2 (protein, UniProt P61916 20-151)
chain: EPVQFKDCGSVDGVIKEVNVSPCPTQPCQLSKGQSYSVNVTFTSNIQSKSSKAVVHGILMGVPVPFPIPEPDGCKSGINCPIQKDKTYSYLNKLPVKSEYPSIKLVVEWQLQDDKNQSLFCWEIPVQIVSHL
B8: DARS (protein, UniProt P14868 1-501)
chain: MPSASASRKSQEKPREIMDAAEDYAKERYGISSMIQSQEKPDRVLVRVRDLTIQKADEVVWVRARVHTSRAKGKQCFLVLRQQQFNVQALVAVGDHASKQMVKFAANINKESIVDVEGVVRKVNQKIGSCTQQDVELHVQKIYVISLAEPRLPLQLDDAVRPEAEGEEEGRATVNQDTRLDNRVIDLRTSTSQAVFRLQSGICHLFRETLINKGFVEIQTPKIISAASEGGANVFTVSYFKNNAYLAQSPQLYKQMCICADFEKVFSIGPVFRAEDSNTHRHLTEFVGLDIEMAFNYHYHEVMEEIADTMVQIFKGLQERFQTEIQTVNKQFPCEPFKFLEPTLRLEYCEALAMLREAGVEMGDEDDLSTPNEKLLGHLVKEKYDTDFYILDKYPLAVRPFYTMPDPRNPKQSNSYDMFMRGEEILSGAQRIHDPQLLTERALHHGIDLEKIKAYIDSFRFGAPPHAGGGIGLERVTMLFLGLHNVRQTSMFPRDPKRLTP

target: NADH dehydrogenase (ubiquinone) 1 alpha subcomplex, 4-like 2 (human (endogenous in RCC4)) (UniProt Q9NRX3); experiment: affinity purification with mass spectrometry; NDUFA4L2 antibody (Abcam ab74138) coupled to Dynabeads M-270 Epoxy; 2 mg RIPA lysate of RCC4-P cells, 12 hours at 4°C, three washes in RIPA buffer; LC-MS/MS, label-free; controls: RCC4-KO-643 (NDUFA4L2 knockout) lysate and IgG beads

binding, binds:
AHNAK2 (from UniProt Q8IVF2 1-5795)
ATP6V1 E1 (from UniProt P36543 1-226)
CAPZA2 (from UniProt P47755 1-286)
EIF3K (from UniProt Q9UBQ5 1-218)
ENO1 (from UniProt P06733 1-434)
FLNA (from UniProt P21333 1-2647)
G6PD (from UniProt P11413 1-515)
GLS (from UniProt O94925 55-669)
HSPA1A (from UniProt P0DMV8 1-641)
LAP3 (from UniProt P28838 1-519)
MYOF (from UniProt Q9NZM1 1-2061)
NPEPPS (from UniProt P55786 1-919)
Niemann-Pick Disease Type C Intracellular Cholesterol Transporter 1 (from UniProt O15118 23-1278)
PCNA (from UniProt P12004 1-261)
PFN2 (from UniProt P35080 1-140)
PRKDC (from UniProt P78527 1-4128)
PSMB4 (from UniProt P28070)
PSMD5 (from UniProt Q16401 1-504)
VCP (from UniProt P55072 1-806)
B1
B2
B3
B4
B5
B6
B7
B8
